Data taken from PubChem BioAssay AID2685 (National Center for Advancing Translational Sciences (NCATS), 2010).
Some of the results follow. Further columns of the screen follow, without active or inactive calls. Most of these compounds were active or inconclusive in the main read-out, so they are no random draw. Potencies come from curve fits of mixed quality, noted in brackets.

Assay: qHTS Assay for Lipid Storage Modulators in Drosophila S3 Cells;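 as to cell number change: cells counted by Cell Tracker Red CMTPX staining in the red channel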
Conditions: BODIPY lipid droplet fluorescence, 18-24 h; for cell number change: measured here: cell count max response, cells fed with added oleic acid
Summary of the method: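 Laser-scanning cytometry quantifies lipid droplet accumulation (500–530 nm total intensity; droplet/cell object ratio) in oleic acid-fed (400 uM added) Drosophila S3 cells treated with a concentration series. 20 uM Triacsin C defined 100% inhibition.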

[1] = measured here: lipid fluorescence (Fed channel) AC50, cells fed with added oleic acid
[2] = measured here: cell number channel AC50, cells fed with added oleic acid

Row | SMILES | cell number change | AC50 [1] | AC50 [2]
1 | COc1cccc2c1OC1(C)CC2/C(=C(\C)O)C(=O)N1 (configuration not stated) | 0.891% | 6.51 µM [rising, partial curve] | 
2 | COc1ccc2[nH]c(C)c(CCNc3ccc(C(F)(F)F)cc3[N+](=O)[O-])c2c1 | -20.1% | 14.6 µM [falling, single point] | 
3 | Cc1ccc2nc(-c3cccnc3)cc(C(=O)N3CCN(c4ccc([N+](=O)[O-])cc4)CC3)c2c1 |  | 13 µM [falling, partial curve, poor fit] | 
4 | O=C(Nc1ccc2ccccc2c1)c1ccccc1F | -6.35% | 29.1 µM [rising, single point] | 
5 | CN(C(=O)CSc1nnc2ccccn12)C1CCS(=O)(=O)C1 (configuration not stated) | -52.6% | 16.4 µM [falling, partial curve] | 1.3 µM [falling, full curve]
6 | CC(C)=CCCC1=CCC(/C(C)=N/NC(N)=O)CC1 (configuration not stated) | -25.5% | 2.06 µM [falling, partial curve] | 1.16 µM [falling, full curve, poor fit]
7 | O=C(NCc1ccco1)c1ccc(=O)oc1 | -6.1% | 0.259 µM [falling, full curve] | 
8 | COc1cc([N+](=O)[O-])ccc1NC(=O)C[n+]1cccc(C)c1 | -18.2% | 0.259 µM [falling, full curve] | 
9 | Cc1cccc(C(=O)N=c2c(C#N)cc3c(=O)n4cccc(C)c4nc3n2Cc2ccco2)c1 | 41% | 0.58 µM [rising, full curve] | 0.103 µM [rising, full curve]
10 | COc1ccccc1N1CCN(C(=O)c2sc3ncnc(N4CCN(c5ccccn5)CC4)c3c2C)CC1 | 21.8% |  | 0.0517 µM [rising, full curve, poor fit]
11 | COc1ccc(S(=O)(=O)N2CCN(CCC(=O)Nc3ccccc3F)CC2)cc1 | 7.64% | 16.4 µM [rising, partial curve] | 
12 | O=C(Nc1ccc2nc(-c3ccc4nc[nH]c4c3)[nH]c2c1)c1cccs1 |  | 5.17 µM [falling, partial curve] | 
13 | CCCSc1ncc(Cl)c(C(=O)Nc2ccc(S(=O)(=O)Nc3ncccn3)cc2)n1 | -28.3% |  | 
14 | CN(C)c1ccc(/C=C/c2ccc3ccccc3[n+]2C)cc1 | -37.5% | 2.31 µM [falling, full curve] | 2.31 µM [falling, full curve]
15 | COc1cccc(NC(=O)Cn2c3ccc(F)cc3c3nc4n(c(=O)c32)CCS4)c1 |  | 16.4 µM [falling, partial curve] | 
16 | COCCn1c(SCC(=O)Nc2ncc(C)s2)nc2sc3c(c2c1=O)CCC3 | -8.73% | 2.06 µM [rising, partial curve] | 
17 | Clc1ccc(CSCCc2ccncc2)cc1 | -71.6% | 3.66 µM [rising, partial curve] | 25.9 µM [falling, single point]
18 | CC(=O)Nc1ccc(NC(=O)CN(C)S(=O)(=O)c2ccc3nc(C)sc3c2)cc1 | 54.5% | 4.11 µM [falling, partial curve] | 7.31 µM [rising, single point]
19 | O=C(COC(=O)C1CCC1)NCc1ccc(F)cc1 | -34.6% | 23.1 µM [falling, partial curve] | 25.9 µM [falling, single point]
20 | COc1cc(CC(=O)OCC(=O)Nc2cc(S(=O)(=O)N3CCCC3)ccc2Cl)cc(OC)c1OC | 34.9% | 0.651 µM [rising, full curve] | 1.46 µM [rising, partial curve, poor fit]
21 | CCO/C=N/c1c(C#N)c(CC#N)nn1-c1ccccc1 |  | 29.1 µM [rising, single point] | 2.59 µM [rising, partial curve]
22 | CC(=O)Nc1ccc(S(=O)(=O)c2cc(O)ccc2O)cc1 | -5.77% |  | 
23 | Cc1ccccc1C(=O)N1CCC(C(=O)Nc2ccc3c(c2)OCCO3)CC1 | 17.6% | 3.66 µM [falling, full curve, poor fit] | 
24 | Oc1cccc2cc3cccc(O)c3c(O)c12 |  | 0.13 µM [falling, full curve, poor fit] | 
25 | C=CCc1ccccc1OCCCCN1CCCC1 | -24.3% | 0.0206 µM [falling, full curve, poor fit] | 0.731 µM [falling, full curve, poor fit]
26 | COc1ccc(NC(=S)NCc2ccc3c(c2)cc(C)n3C)cc1 | 20.3% | 29.1 µM [rising, single point] | 
27 | CC1CC(C(F)(F)F)n2ncc(C(=O)O)c2N1 (configuration not stated) | -18.6% | 23.1 µM [falling, single point] | 

Already shown: entries from further up.
Row | SMILES | cell number change | AC50 [1] | AC50 [2]
19 | O=C(COC(=O)C1CCC1)NCc1ccc(F)cc1 | -34.6% | 23.1 µM [falling, partial curve] | 25.9 µM [falling, single point]
20 | COc1cc(CC(=O)OCC(=O)Nc2cc(S(=O)(=O)N3CCCC3)ccc2Cl)cc(OC)c1OC | 34.9% | 0.651 µM [rising, full curve] | 1.46 µM [rising, partial curve, poor fit]
